{
  "source": "the supplement of paper PMC8256030",
  "note": "Where “and” joins values, the source holds several entries; their conditions need not be identical. Identical values can stand only once. The list shows a part of the results. This data set is noisy: repeats of one test often differ as much as different tests do.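 HEK293T cells were given each compound shortly before transfection with a reporter in which red mCherry is followed by the SARS-CoV-2 frameshift element and then GFP in the −1 frame, so GFP appears only after frameshifting.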",
  "data": [
    {"tested_on": "HEK293T", "assay": "percent viability (nuclei count) relative to control; higher = more viable cells", "conditions": "10 µM; 24 h", "values": [
      {"smiles": "Cc1c(C(=O)OCCO)[n+]([O-])c2ccccc2[n+]1[O-]", "note": "[temodox]", "percent viability": "179%"},
      {"smiles": "C[C@@H](O[C@H]1OCCN(Cc2n[nH]c(=O)[nH]2)[C@H]1c1ccc(F)cc1)c1cc(C(F)(F)F)cc(C(F)(F)F)c1", "note": "[Emend]", "percent viability": "253%"},
      {"smiles": "NCC[C@H](O)C(=O)N[C@@H]1C[C@H](N)[C@@H](O[C@H]2O[C@H](CN)[C@@H](O)[C@H](O)[C@H]2O)[C@H](O)[C@H]1O[C@H]1O[C@H](CO)[C@@H](O)[C@H](N)[C@H]1O", "note": "[amikacin]", "percent viability": "271% and 161%"},
      {"smiles": "O=C(O)c1cc(=O)[nH]c(=O)[nH]1", "note": "[orotic acid]", "percent viability": "369%"},
      {"smiles": "CC(C)=CCNc1ncnc2c1ncn2[C@@H]1O[C@H](CO)[C@@H](O)[C@H]1O", "note": "[riboprine]", "percent viability": "149%"}
    ]}
  ]
}
